Data as given in PMC11088074.
These are yes or no findings as the source states them, for the method shown. Binding seen in cells or lysates may run through a third protein. Some entries that bind do so weakly or less than the wild type.

Sequences of proteins named here, by UniProt entry; tags and fusion partners are left off. Residues count along the entry.
UniProt P17246, residues 279-390: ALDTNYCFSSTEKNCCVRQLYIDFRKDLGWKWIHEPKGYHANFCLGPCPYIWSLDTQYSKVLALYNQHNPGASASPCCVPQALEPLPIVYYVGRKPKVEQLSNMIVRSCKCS

Target: Transforming growth factor-β1 (rat (endogenous in myocardial tissue)) (UniProt P17246)
Assay: co-IP; myocardial tissue homogenate of rats (Sham and MI groups) in lysis buffer (50 mM Tris-HCl, 5 mM EDTA, 150 mM NaCl, 0.5% Nonidet-P40, 10% glycerol, pH 7.4); precipitated with TGF-β1 antibody or IgG control overnight at 4 °C, Protein G magnetic beads, 5 washes in TBST, Western blot

B1: TGF-β receptor II (receptor, UniProt P38438 24-567)
chain: IPPHVPKSVNSDLMAGDNSGAVKLPQLCKFCDVTLSTCDNQKSCMSNCSVTSICEKPQEVCVAVWRKNDKNITLETVCHDPKFTYHGFTLEDATSPTCVMKEKKRAGETFFMCSCNTEECNDYIIFNEEYTTSSPDLLLVIIQVTGVSLLPPLGIAIAVIAIFYCYRVHRQQKLSPSWESSKPRKLMDFSDNCAIILEDDRSDISSTCANNINHNTELLPIELDTLVGKGRFAEVYKAKLKQNTSEQFETVAVKIFPYEEYSSWKTEKDIFSDINLKHENILQFLTAEERKTEMGKQYWLITAFHAKGNLQEYLTRHVISWEDLRKLGSSLARGIAHLHSDHTPCGRPKMPIVHRDLKSSNILVKNDLTCCLCDFGLSLRLDPTLSVDDLANSGQVGTARYMAPEVLESRMNLENMESFKQTDVYSMALVLWEMTSRCNAVGEVKDYEPPFGSKVREHPCVESMKDNVLRDRGRPEIPSFWLNHQGIQIVCETLTECWDHDPEARLTAQCVAERFSELEHPDRLSGRSCSQEKIPEDGSLNTTK
binding: binds
